# Measured values taken from PubChem BioAssay AID1347423 (Functional Genomics Laboratory (NCATS/FGL), 2020).
# About 210 (0.4%) of roughly 52,000 sequences were called active.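 The calls were made as follows: active = gene whose silencing raises cell survival under the drug, median off-target-corrected z-score across its silencing RNAs 2 or more; inactive = the rest.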 The list shows a part of the results.
# Test: Resistance to Poly (ADP-Ribose) Polymerase inhibitor: Gene Identification via Genome-wide siRNA Screen
# Details: mouse BRCA2 R2336H ES cells, olaparib, CellTiter-Glo viability; hits give high values
# In short: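 Genome-wide siRNA screen (3 siRNAs/gene, 20 nM) in mouse ES cells carrying hypomorphic BRCA2 R2336H; olaparib 500 nM added 48 h post-transfection, CellTiter-Glo viability 72 h later. Normalized to plate-median negative control; MAD z-scores, gene median, seed-adjusted.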
row,Sequence,z-score
1,GGAAGAUAACAUCAACAAATT against Arl6ip5,inactive: 1.59
2,CGGACUCACAGAGCUAAGATT against Tnp2,inactive: -0.465
3,GGAGACUUACGAACUUCGUTT against 3110001N18Rik,inactive: -0.36
4,GCUUGAAUUGUGUAGUAAUTT against 6030413G23Rik,inactive: -0.557
5,GGCCGAAUUGUGUCUUGGUTT against Dnmt3a,inactive: -1.9
6,GGAGACUGAGACUUUAGAGTT against Gadd45b,inactive: 0.727
7,GGGUCUGGUUCUGUAACCATT against Pou4f3,inactive: -0.226
8,GGAAAAUACAUUGAUGAGCTT against Xrcc4,inactive: 0.301
9,GGUGAAAAGAUCAGAAUACTT against 1110025H10Rik,inactive: 0.62
10,CCAGAGGUCACGAUUACUUTT against Pcdha12,inactive: -1.15
11,CCUGUUUCACAGCUUCUAUTT against BC002216,inactive: 0.582
12,GGUAGACACACACAUUCAUTT against Ampd3,inactive: -0.454
13,GGACCAUUCUUGCGUUCGUTT against Cacng7,inactive: -0.244
14,GGCCGCACCAUGUAUGUCATT against Pck1,inactive: -1.54
15,GCAGGAUCCUUAAUUUGGCTT against Rnh2,inactive: 1.65
16,GCAAGAGGUCUGAAGUAUGTT against D130016K21Rik,inactive: -0.882
17,GGCAGACCAUGAAUGCUGUTT against Kcna2,inactive: -0.87
18,GGCUGUAAAAAUUAGUAUGTT against A630001G21Rik,inactive: -0.305
19,CCAUAUGAAAUCCCUGCAUTT against Irs3,inactive: -2.01
20,GCUAUUGUAGAGAGCUGAATT against C330023F11Rik,inactive: -3.34
21,GGUUGGCGAGACUUCUACGTT against 4921523A10Rik,inactive: 0.206
22,GGAAAUCAACAUGUUAAAGTT against Map4k6,inactive: 0.968

# Two successive entries out of the list so far, quoted:
row,Sequence,z-score
3,GGAGACUUACGAACUUCGUTT against 3110001N18Rik,inactive: -0.36
4,GCUUGAAUUGUGUAGUAAUTT against 6030413G23Rik,inactive: -0.557

# Reformatted bar-delimited: part of the list above.
row | Sequence | z-score
12 | GGUAGACACACACAUUCAUTT against Ampd3 | inactive: -0.454
13 | GGACCAUUCUUGCGUUCGUTT against Cacng7 | inactive: -0.244

# Additional entries

row,Sequence,z-score
1,GCUAUUAAAGAGCCCACAATT against Sh3glb2,inactive: 0.56
2,GCAGAUAGAAGACUGGAAUTT against 1700024G13Rik,inactive: 0.527
3,GGUGAAGGCCUAUGAGAAGTT against Nosip,inactive: -2.97
4,GGCCUGGAAUAGAUUUGUGTT against 2210016L21Rik,inactive: 0.581
5,CGCGCCUGAAAAUGUUGAATT against BC027088,inactive: 0.934
6,GGAGAGCAGUAUGAGAUCUTT against Galnt10,inactive: -0.0698
7,CCACAACAUUUGCUAAUAATT against Cysltr2,inactive: 0.387
8,GGUAAUUAACAUGAAGUGUTT against Traf4,inactive: 0.499
9,GCAAAUCACACAUUCUCUGTT against Stk32b,inactive: 0.853
10,GCUACUGAACGAGAAUGCCTT against BC036563,inactive: 0.797
11,GGAGAAUUGUUUUUACCAGTT against Bbox1,inactive: -0.346
12,GGAAAAGGAACUUUAUCUATT against Aprin,inactive: -0.44
13,GGCAAGGUGCUGAUUCCCUTT against Itga9,inactive: 2.56
14,GCUGACUAAGGCUUGUAAUTT against S100a18,inactive: -0.608
15,GGACUAUGUAGUGAAACAUTT against Cai,inactive: -0.951
16,GCUCAUUCCGUUUAUUAUUTT against 1600020H07Rik,inactive: -0.3
17,CGAGUUGUAUAGCAGCUCCTT against Dok2,inactive: -0.491
18,GGUGGAUGUCUCAGCAUAATT against Pafah1b2,inactive: -1.05
19,GGAAAUUUUUCCCAGCUGGTT against Prlpc3,inactive: -0.552
20,GCGUGCUGUGUAAGAGUGUTT against Gja4,inactive: -0.867
21,GGAUUCUCUUCCAUCUUACTT against Olfr266,inactive: -0.426
22,GGAGUAUUCAACAUUUGUATT against Trim11,inactive: 0.605

row,Sequence,z-score
1,CUCUAGCUACUAUUUUCUCTT against Olfr824,inactive: -0.473
2,GGAUCGAAUGUACCAACGGTT against Rnase4,inactive: 1.94
3,CCCACCUUAUGGGACAAAATT against Hlf,inactive: -0.693
4,CGACAUGGAGAGAUGCACATT against Galnt14,inactive: 0.481
5,CGCAUACAUCAGUGUGGCATT against A730085E03Rik,inactive: 1.07
6,CCCUCAAGGCUGAUAAACATT against Il17b,inactive: -0.848
7,GGGCUACUAUUCAUUGAUCTT against 4930550L24Rik,inactive: 0.273
8,CCUCUACACUUUAGAUGGUTT against Gnb2-rs1,inactive: -0.429
9,CCUCCUACUGUUUAAUGUUTT against 4930539P14Rik,inactive: -1.12
10,GGAUAAGCAUGAUGACAGUTT against Wbp11,inactive: -2.26
11,CCUUAUUACACACACCCUGTT against Gja3,inactive: 0.967
12,GGGAGCUAAUGAGCAAGGATT against Galk1,inactive: -0.061
13,GGAUCAGAUUCUGAAGAGATT against Vcl,inactive: 0.267
14,GCAAAAGUAUCUACUGGCGTT against Clec2,inactive: 0.262
15,GGAUGAUAUGCUGUUAGUGTT against Il17rc,inactive: -0.666
16,GGGUAUUCCUUCCAACACCTT against Lrrc4,inactive: 0.779
17,GCUGGCGGAGCAAACUCAATT against Foxd3,inactive: -1.65
18,GGGAAUUUAUAGCUUCAGCTT against Cbln2,inactive: 1.32
19,GGCUCAAGAAAUUCUGGACTT against Noxo1,inactive: 0.472
20,GCUGUGCAAGGUGAGGAAATT against 1110033J19Rik,inactive: -0.613
21,GGGACAUUCAUAUGUCUAUTT against C330014B19Rik,inactive: 0.455
22,GCCUUAGGAUGCAUCUUGUTT against Smarcad1,inactive: 1.4
